Publication PMC4256660
Results are given in words; binding and its absence hold for the method and conditions named. Binding seen in cells or lysates may run through a third protein. Some binding calls cover weakened binding; strength is not graded here. Sequences can lack the tags named with a protein. Values belong to the molecule of their own block, whether it stands above or below them.

By UniProt entry, the sequences of proteins in these tests, tags left out. Where a name states a change or a piece, a line headed by the entry shows the natural chain unless it says otherwise.
UniProt P40763: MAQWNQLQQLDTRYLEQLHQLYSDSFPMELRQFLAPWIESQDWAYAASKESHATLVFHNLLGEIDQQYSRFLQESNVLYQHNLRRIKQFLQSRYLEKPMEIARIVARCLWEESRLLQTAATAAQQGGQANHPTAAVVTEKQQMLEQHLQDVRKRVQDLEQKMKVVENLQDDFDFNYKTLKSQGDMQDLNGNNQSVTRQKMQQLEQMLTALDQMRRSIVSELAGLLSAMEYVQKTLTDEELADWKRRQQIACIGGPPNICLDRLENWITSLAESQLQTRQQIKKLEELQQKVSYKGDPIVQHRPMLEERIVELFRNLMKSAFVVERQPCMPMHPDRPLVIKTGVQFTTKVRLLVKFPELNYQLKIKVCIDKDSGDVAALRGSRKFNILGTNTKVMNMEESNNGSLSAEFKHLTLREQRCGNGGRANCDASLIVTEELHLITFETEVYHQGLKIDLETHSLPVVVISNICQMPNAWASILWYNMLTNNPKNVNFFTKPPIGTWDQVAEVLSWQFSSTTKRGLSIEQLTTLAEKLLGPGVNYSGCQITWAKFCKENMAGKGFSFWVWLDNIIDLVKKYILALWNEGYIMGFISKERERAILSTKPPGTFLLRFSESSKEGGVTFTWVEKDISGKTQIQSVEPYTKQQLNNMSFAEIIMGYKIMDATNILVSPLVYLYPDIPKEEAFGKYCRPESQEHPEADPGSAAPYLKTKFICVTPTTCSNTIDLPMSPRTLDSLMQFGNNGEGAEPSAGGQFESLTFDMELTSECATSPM

Legend:
[1] = molecular target: T1, Inositol Polyphosphate-5-Phosphatase F (INPP5F), V5-tagged, overexpressed in glioblastoma cells (UniProt Q9Y2H2); assay: co-IP; IP with anti-V5 (INPP5F-V5) from lysates of INPP5F overexpressing glioblastoma cells, immunoblot for STAT3; M2 lysis buffer (20 mM Tris pH 7, 0.5% NP40, 250 mM NaCl), Dynabeads Protein G
T1 sequence: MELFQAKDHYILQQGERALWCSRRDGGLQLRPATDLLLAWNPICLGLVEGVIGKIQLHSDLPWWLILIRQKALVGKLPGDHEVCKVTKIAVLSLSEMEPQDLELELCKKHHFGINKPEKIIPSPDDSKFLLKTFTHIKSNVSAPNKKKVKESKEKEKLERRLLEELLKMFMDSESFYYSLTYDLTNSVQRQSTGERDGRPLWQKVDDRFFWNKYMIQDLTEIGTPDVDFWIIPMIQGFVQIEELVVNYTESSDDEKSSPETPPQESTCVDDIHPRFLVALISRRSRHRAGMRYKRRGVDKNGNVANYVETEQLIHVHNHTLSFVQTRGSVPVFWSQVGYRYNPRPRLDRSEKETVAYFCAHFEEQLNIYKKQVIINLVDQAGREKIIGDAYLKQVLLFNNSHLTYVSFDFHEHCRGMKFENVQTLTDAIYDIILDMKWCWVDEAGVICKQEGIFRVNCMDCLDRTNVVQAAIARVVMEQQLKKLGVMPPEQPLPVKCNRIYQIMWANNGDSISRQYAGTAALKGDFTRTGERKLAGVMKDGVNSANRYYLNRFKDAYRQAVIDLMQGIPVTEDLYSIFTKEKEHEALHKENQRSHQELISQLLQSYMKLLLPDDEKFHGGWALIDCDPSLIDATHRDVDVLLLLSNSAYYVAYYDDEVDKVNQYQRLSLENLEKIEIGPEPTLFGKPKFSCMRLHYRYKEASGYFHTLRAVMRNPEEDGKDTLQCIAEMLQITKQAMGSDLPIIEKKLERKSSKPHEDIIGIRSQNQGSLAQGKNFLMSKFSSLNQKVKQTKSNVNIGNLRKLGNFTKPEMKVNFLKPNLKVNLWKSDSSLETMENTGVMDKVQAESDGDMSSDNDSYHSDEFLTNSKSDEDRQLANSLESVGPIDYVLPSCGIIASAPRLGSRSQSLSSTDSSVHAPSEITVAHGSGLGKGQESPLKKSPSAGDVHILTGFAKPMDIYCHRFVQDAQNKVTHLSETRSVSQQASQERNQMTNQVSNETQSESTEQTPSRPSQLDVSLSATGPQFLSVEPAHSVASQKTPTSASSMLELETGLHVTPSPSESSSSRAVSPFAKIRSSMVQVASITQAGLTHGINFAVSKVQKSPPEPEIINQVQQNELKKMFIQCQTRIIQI

[2] = molecular target: T2, INPP5F-V5, co-transfected in 293T cells (UniProt Q9Y2H2); assay: co-IP; 293T cells co-transfected with INPP5F-V5 and GFP-tagged STAT3 constructs; IP with anti-V5, immunoblot with anti-GFP; M2 lysis buffer, Dynabeads Protein G
T2 sequence: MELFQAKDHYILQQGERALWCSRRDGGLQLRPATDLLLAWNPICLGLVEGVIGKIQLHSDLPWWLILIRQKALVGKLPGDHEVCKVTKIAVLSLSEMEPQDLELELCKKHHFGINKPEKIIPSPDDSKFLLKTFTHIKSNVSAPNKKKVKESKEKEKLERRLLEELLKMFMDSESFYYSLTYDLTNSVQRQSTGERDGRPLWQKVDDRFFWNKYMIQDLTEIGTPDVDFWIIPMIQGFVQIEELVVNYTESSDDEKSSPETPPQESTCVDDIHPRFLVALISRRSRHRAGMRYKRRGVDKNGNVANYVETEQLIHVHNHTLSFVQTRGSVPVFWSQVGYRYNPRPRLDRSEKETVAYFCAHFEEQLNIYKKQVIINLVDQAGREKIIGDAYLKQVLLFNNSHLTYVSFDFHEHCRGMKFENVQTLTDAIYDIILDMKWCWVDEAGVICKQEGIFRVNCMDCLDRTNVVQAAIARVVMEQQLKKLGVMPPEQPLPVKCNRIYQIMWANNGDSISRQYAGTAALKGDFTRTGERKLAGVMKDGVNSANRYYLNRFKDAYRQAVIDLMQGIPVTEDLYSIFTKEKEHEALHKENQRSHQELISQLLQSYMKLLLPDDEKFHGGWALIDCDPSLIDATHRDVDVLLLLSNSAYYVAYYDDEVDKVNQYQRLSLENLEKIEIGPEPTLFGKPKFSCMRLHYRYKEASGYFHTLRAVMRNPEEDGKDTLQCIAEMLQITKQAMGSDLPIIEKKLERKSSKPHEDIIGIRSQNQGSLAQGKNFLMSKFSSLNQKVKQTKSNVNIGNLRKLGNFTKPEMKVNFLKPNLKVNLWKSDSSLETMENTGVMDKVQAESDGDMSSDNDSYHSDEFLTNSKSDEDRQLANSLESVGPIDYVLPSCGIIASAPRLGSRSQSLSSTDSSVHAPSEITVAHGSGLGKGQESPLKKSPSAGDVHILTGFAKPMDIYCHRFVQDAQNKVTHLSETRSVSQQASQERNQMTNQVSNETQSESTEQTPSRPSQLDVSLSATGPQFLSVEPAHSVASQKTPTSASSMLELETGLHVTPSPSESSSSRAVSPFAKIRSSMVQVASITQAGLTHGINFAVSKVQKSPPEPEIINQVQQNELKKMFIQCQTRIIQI

[3] = molecular target: Signal Transducer and Activator of Transcription 3 (STAT3), endogenous in glioblastoma cells (human (endogenous in glioblastoma cells)) (UniProt P40763); assay: co-IP; IP with anti-STAT3 from the same lysates of INPP5F overexpressing glioblastoma cells, immunoblot for INPP5F; M2 lysis buffer, Dynabeads Protein G

- binding [1]: binds
Molecule: Signal Transducer and Activator of Transcription 3 (STAT3), endogenous in glioblastoma cells (from UniProt P40763 1-770)

- binding [2]: binds
Molecule: STAT3-Y705F-GFP (from UniProt P40763 1-770)

- binding [3]: binds
B1: Inositol Polyphosphate-5-Phosphatase F (INPP5F), V5-tagged, overexpressed in glioblastoma cells (enzyme, UniProt Q9Y2H2 1-1132)
chain: MELFQAKDHYILQQGERALWCSRRDGGLQLRPATDLLLAWNPICLGLVEGVIGKIQLHSDLPWWLILIRQKALVGKLPGDHEVCKVTKIAVLSLSEMEPQDLELELCKKHHFGINKPEKIIPSPDDSKFLLKTFTHIKSNVSAPNKKKVKESKEKEKLERRLLEELLKMFMDSESFYYSLTYDLTNSVQRQSTGERDGRPLWQKVDDRFFWNKYMIQDLTEIGTPDVDFWIIPMIQGFVQIEELVVNYTESSDDEKSSPETPPQESTCVDDIHPRFLVALISRRSRHRAGMRYKRRGVDKNGNVANYVETEQLIHVHNHTLSFVQTRGSVPVFWSQVGYRYNPRPRLDRSEKETVAYFCAHFEEQLNIYKKQVIINLVDQAGREKIIGDAYLKQVLLFNNSHLTYVSFDFHEHCRGMKFENVQTLTDAIYDIILDMKWCWVDEAGVICKQEGIFRVNCMDCLDRTNVVQAAIARVVMEQQLKKLGVMPPEQPLPVKCNRIYQIMWANNGDSISRQYAGTAALKGDFTRTGERKLAGVMKDGVNSANRYYLNRFKDAYRQAVIDLMQGIPVTEDLYSIFTKEKEHEALHKENQRSHQELISQLLQSYMKLLLPDDEKFHGGWALIDCDPSLIDATHRDVDVLLLLSNSAYYVAYYDDEVDKVNQYQRLSLENLEKIEIGPEPTLFGKPKFSCMRLHYRYKEASGYFHTLRAVMRNPEEDGKDTLQCIAEMLQITKQAMGSDLPIIEKKLERKSSKPHEDIIGIRSQNQGSLAQGKNFLMSKFSSLNQKVKQTKSNVNIGNLRKLGNFTKPEMKVNFLKPNLKVNLWKSDSSLETMENTGVMDKVQAESDGDMSSDNDSYHSDEFLTNSKSDEDRQLANSLESVGPIDYVLPSCGIIASAPRLGSRSQSLSSTDSSVHAPSEITVAHGSGLGKGQESPLKKSPSAGDVHILTGFAKPMDIYCHRFVQDAQNKVTHLSETRSVSQQASQERNQMTNQVSNETQSESTEQTPSRPSQLDVSLSATGPQFLSVEPAHSVASQKTPTSASSMLELETGLHVTPSPSESSSSRAVSPFAKIRSSMVQVASITQAGLTHGINFAVSKVQKSPPEPEIINQVQQNELKKMFIQCQTRIIQI
